Among the data in article PMC10227054 are binding values, retold here.

Results are given in words; binding and its absence hold for the method and conditions named. Binding can be weak; no strength is given. Where a sequence is shown, tags or fusion partners need not be part of it. For some of these results: In cells and extracts the contact can be indirect.

For experiment [1], the target named is T1, Gst-CLCA (clathrin light chain A) (UniProt O08585).
T1 sequence: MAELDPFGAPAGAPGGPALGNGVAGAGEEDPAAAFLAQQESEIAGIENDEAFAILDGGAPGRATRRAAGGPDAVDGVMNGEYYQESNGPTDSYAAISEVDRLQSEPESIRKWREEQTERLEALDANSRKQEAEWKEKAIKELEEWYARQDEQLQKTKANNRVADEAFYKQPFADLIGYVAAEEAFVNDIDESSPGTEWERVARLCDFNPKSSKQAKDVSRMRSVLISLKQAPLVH
Nature of the experiment: pull-down; GST-tagged bait on glutathione-Sepharose incubated with purified His6-tagged otoferlin fragments, 4 h at 4 °C, 20 mM Tris-Cl, 100 mM NaCl, 5 mM MgCl2, 1 mM EDTA, 1 mM DTT, 0.5% NP-40, pH 7.6; Coomassie gel and immunoblot against His; with calcium: 20 mM Tris-Cl, 100 mM NaCl, pH 7.6 at different calcium concentrations; both purified.

The target in experiment [2] is T1, Gst-CLCA (clathrin light chain A). Nature of the experiment: pull-down; lysates of HEK293T cells transfected for 48 h with HA-tagged Otof-C or Otof-S, pulled down with purified GST-tagged bait; immunoblot with antibodies against HA and GST; also tested at different Ca2+ concentrations (Supplementary Fig. 9); only the target purified.

As for “otoferlin fragment C2A (1-192 AA) (mouse) (domain or fragment)”, in experiment [1], the binding entry is given as “binds”.

As for “otoferlin canonical isoform (Otof-C), HA-tagged (mouse)”, the binding entry in experiment [2] is given as “binds”.

In the case of “otoferlin fragment C2ABC (1-616 AA) (mouse) (domain or fragment)”, the binding result in experiment [1] is “binds”.

Take “otoferlin fragment C2BC (193-616 AA) (mouse) (domain or fragment)”: the binding result in experiment [1] is on record as “binds”.
